The assay is described as follows: qHTS Assay for Modulators of Lamin A Splicing. Conditions: HeLa LMNA splicing GFP/RFP minigene ratio, 48 h. The essentials: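 Read-out is the ratio of GFP to DsRed2 object intensity, acquired by 488 nm laser-scanning cytometry on HeLa lamin A-EGFP minigene reporter cells. Compound incubation 48 hrs at 37 °C in Opti-MEM with 2% FBS; DMSO 0.5% final.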
In general terms: Quantitative high-throughput screening tests each substance at several concentrations.

The mark [1] stands for this setting: measured here: GFP splicing reporter channel.
The mark [2] stands for this setting: measured here: RFP viability control channel.

For orientation: AC50 means the concentration at which the activity in the assay is half-maximal.

The other results are listed elsewhere or left out. These are further read-outs of the screen, such as a control signal, another cell line or another target. No call is given for them. Most of these compounds were active or inconclusive in the main read-out, so they are no random draw. Potencies come from curve fits of mixed quality, noted in brackets.

Regarding `Cc1ccc(N(CC2=NCCN2)c2cccc(O)c2)cc1`, the AC50 is 6.31 µM [falling, partial curve, poor fit] under setting [1] and 5.01 µM [rising, partial curve, poor fit] under setting [2]. As to `O=C(N/C(=C\c1ccc(Cl)cc1)C(=O)N1CCOCC1)c1ccc([N+](=O)[O-])cc1`, the AC50 under setting [2] was 4.47e-05 µM [rising, full curve]. `CC(=O)NC(NC(=S)Nc1ccc(N=Nc2ccccc2C)cc1C)C(Cl)(Cl)Cl` (stereo not drawn): the AC50 is, setting by setting: under setting [1], 14.1 µM [falling, single point]; under setting [2], 14.1 µM [falling, partial curve].

Regarding `O=C(NCCCN1CCOCC1)c1ccc(CNS(=O)(=O)c2ccc(F)cc2)cc1`, the AC50 under setting [2] is 14.1 µM [rising, single point]. `Cc1ccccc1Cn1nnc(C(=O)Nc2cccc(C)c2C)c1N`: under setting [1], the concentration at half-maximal activity (AC50) was 15.8 µM [falling, single point]. `Cc1ccc(OCc2nnc(SCC(=O)Nc3cccc4ccccc34)n2-c2ccccc2)cc1`: the AC50 under setting [1] was 15.8 µM [rising, single point] and the AC50 under setting [2] was 25.1 µM [rising, single point].

For `Cc1ccc(S(=O)(=O)NCCC(=O)Nc2ccc(Cl)c(Cl)c2)cc1`, the AC50 is, setting by setting: under setting [1], 11.2 µM [rising, single point]; under setting [2], 14.1 µM [rising, partial curve].

Take `CCN(CC)c1ccc2c(c1)CCCN2`: the AC50 under setting [1] was 22.4 µM [rising, single point] and the concentration at half-maximal activity (AC50) under setting [2] is 22.4 µM [rising, single point]. In the case of `CCOc1ccc(/C=C/C(=O)Nc2ccc(N3CCOCC3)cc2)cc1`, the AC50 by setting is: under setting [1], 25.1 µM [falling, single point]; under setting [2], 35.5 µM [falling, single point]. For `CC(C)CSc1n[nH]c(N)n1`, the half-maximal activity concentration (AC50) under setting [1] was 0.447 µM [rising, partial curve, poor fit].

Regarding `O=C(c1noc2c1CCc1ccccc1-2)N1CCCc2ccccc21`, the half-maximal activity concentration (AC50) under setting [1] was 11.2 µM [rising, single point] and the AC50 under setting [2] was 35.5 µM [rising, single point].

Take `CC1CCCC(C)N1NC(=O)c1cccc(S(=O)(=O)N2CCc3ccccc32)c1` (stereo not drawn): the AC50 under setting [2] was 14.1 µM [rising, single point]. Same read-out and setting: the figure for `Cc1ccc(NC(=O)OCC(F)(F)C(F)F)cc1NC(=O)OCC(F)(F)C(F)F` is 3.16 µM [rising, full curve, poor fit].

Consider `COc1ccc(-c2csc(/C(C#N)=C\c3ccc(OC)c([N+](=O)[O-])c3)n2)cc1`, for which the half-maximal activity concentration (AC50) under setting [1] was 0.251 µM [rising, full curve, poor fit] and the AC50 under setting [2] was 0.141 µM [rising, full curve, poor fit].

Regarding `Cc1ccc(C)c(NS(=O)(=O)c2cc(C(=O)Nc3cccc(N(C)S(C)(=O)=O)c3)ccc2C)c1`, under setting [2], the AC50 was 15.8 µM [rising, partial curve]. For `COc1ccc(/C=C/C(=O)C2CC2)cc1Cn1nc(C)c([N+](=O)[O-])c1C`, the AC50 under setting [1] is 12.6 µM [falling, partial curve, poor fit].

In the case of `CC(C)CC(CO)N1CCN(C(=O)c2cccc(C(F)(F)F)c2)CCC1=O` (stereo not drawn), the half-maximal activity concentration (AC50) under setting [2] was 20 µM [rising, single point]. On the same count and under the same terms, the figure for `O=C(Nc1ccc2snnc2c1)Nc1cccc2ccccc12` is 11.2 µM [rising, single point]. Take `Cc1ccc(CNC(=O)c2c(Nc3ccccc3C)sc(C(=O)c3ccc(F)cc3)c2N)cc1`: the half-maximal activity concentration (AC50) was 8.91 µM [falling, single point] under setting [1] and 3.16 µM [falling, partial curve] under setting [2]. Take `Cc1sc(NC(=O)CCCC(=O)O)c(C(N)=O)c1-c1ccccc1`: the concentration at half-maximal activity (AC50) under setting [2] was 8.91 µM [falling, partial curve, poor fit].

As for `COC(=O)c1cn(NC(=O)Cc2ccc(OC)c(OC)c2)c(=O)c2ccccc12`, the AC50 was 6.31 µM [falling, single point] under setting [1] and 3.98 µM [falling, single point] under setting [2].

Regarding `O=[N+]([O-])c1ccc(-c2cnc(SCc3ccccc3Cl)[nH]2)cc1`, the AC50 runs as follows: under setting [1], 12.6 µM [falling, single point]; under setting [2], 15.8 µM [falling, single point].

Consider `Cc1ccc(CNC(=O)c2c(Nc3c(C)cccc3C)sc(C(=O)c3ccccc3)c2N)cc1`, for which the AC50 by setting is: under setting [1], 10 µM [falling, partial curve]; under setting [2], 11.2 µM [falling, partial curve].

On to `C=CCOc1cccc(/C=C2\C(=O)N(Cc3ccc(C)cc3)C(C)=C2C(=O)OC)c1`, for which the AC50 under setting [2] was 17.8 µM [rising, partial curve]. Regarding `O=C(Nc1nc2ccc([N+](=O)[O-])cc2s1)c1c(F)cccc1F`, the half-maximal activity concentration (AC50) under setting [2] was 0.01 µM [falling, full curve, poor fit]. For `O=C(N/N=C/c1ccccc1Cl)c1[nH]c2ccc(Br)cc2c1-c1ccccc1`, the AC50 under setting [2] was 0.562 µM [rising, full curve]. In the case of `O=C1c2cccc(OCC(=O)N3N=C(c4cccs4)CC3c3ccc(F)cc3)c2CCN1Cc1cccnc1` (stereo not drawn), under setting [2], the concentration at half-maximal activity (AC50) was 14.1 µM [rising, partial curve, poor fit]. Still for that read-out and setting: the figure for `COc1ccc(CCNC(=O)c2ccc(CNS(=O)(=O)c3cccc(Cl)c3)cc2)cc1OC` is 35.5 µM [rising, single point]. Still for that read-out and setting: the figure for `COc1ccc(CCN2C(=O)CS/C2=N\NC(=O)c2ccc(C(C)(C)C)cc2)cc1OC` is 11.2 µM [rising, partial curve]. For the compound `Cc1ccccc1-c1ccc2ncnc(-n3ccnc3)c2c1`, the half-maximal activity concentration (AC50) is, setting by setting: under setting [1], 1.41 µM [falling, full curve]; under setting [2], 2 µM [falling, full curve].

Regarding `O=[N+]([O-])c1nn(-c2ccccc2)n(O)c1=NCCc1ccccc1`, the AC50 under setting [1] was 22.4 µM [rising, single point] and the AC50 under setting [2] was 20 µM [rising, partial curve]. `COc1ccc(-c2nc3sc(CCNC(=O)C(=O)Nc4ccccc4C#N)c(C)n3n2)cc1`: the half-maximal activity concentration (AC50) under setting [2] is 22.4 µM [falling, partial curve, poor fit]. Take `CCC1C/C(=C/c2cccs2)C(=O)/C(=C/c2cccs2)C1` (stereo not drawn): under setting [2], the AC50 is 12.6 µM [rising, single point]. For the compound `S=C1NC2(CCCCC2)NN1c1ccccc1`, the AC50 under setting [1] was 3.98 µM [rising, full curve, poor fit].

These data come from PubChem BioAssay AID1487 (National Center for Advancing Translational Sciences (NCATS), 2009).
